Results from paper PMC3076448.

Amino acid sequences for entries named in this document (tags omitted).
UniProt P20226, whole entry: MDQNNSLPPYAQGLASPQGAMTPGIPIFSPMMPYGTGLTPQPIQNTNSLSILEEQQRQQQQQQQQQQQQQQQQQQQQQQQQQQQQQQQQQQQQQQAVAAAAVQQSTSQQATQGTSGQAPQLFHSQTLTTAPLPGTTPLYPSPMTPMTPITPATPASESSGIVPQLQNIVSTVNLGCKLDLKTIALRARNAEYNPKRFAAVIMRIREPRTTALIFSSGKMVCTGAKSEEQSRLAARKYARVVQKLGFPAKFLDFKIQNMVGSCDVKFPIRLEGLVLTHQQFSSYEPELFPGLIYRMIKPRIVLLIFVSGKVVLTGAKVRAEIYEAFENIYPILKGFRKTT

Key:
TBP + TFIIB [1] = experiment: AFM; conditions: preferential binding at TATA box; AFM imaging buffers: A 10 mM Tris-HCl, 0.1 mM NiCl2, pH 7.9; B 10 mM Tris-HCl, 1 mM NiCl2, pH 7.9; recombinant protein; probe letters rebuilt from the primers and the genome
TBP + TFIIB [2] = experiment: EMSA; conditions: AFM imaging buffers: A 10 mM Tris-HCl, 0.1 mM NiCl2, pH 7.9; B 10 mM Tris-HCl, 1 mM NiCl2, pH 7.9; recombinant protein; probe letters rebuilt from the primers and the genome
TBP (human) = TBP (human) (UniProt P20226); experiment: EMSA; conditions: no TFIIB, less intense band; AFM imaging buffers: A 10 mM Tris-HCl, 0.1 mM NiCl2, pH 7.9; B 10 mM Tris-HCl, 1 mM NiCl2, pH 7.9; recombinant protein; residues 1-339; probe letters rebuilt from the primers and the genome

Measured: binding result

GGATCCTTCAGTTCGCCGCATCCTTCTCCATTATTTGAATATTGGAGGCTGCCTGACCAGAATCTTGTCAGGACTTTGCTCCTTCATCCCAGGTGGTCCCGGCTGACTCCTGAGGACGTTACAGCCCTGAGGGGAGGACTCAGCTTATGAAGTGCTGGGTGAGACCACTGCCAAGAAGTGCTTGCTCACCCTACCTTCAACGGCAGGGGAATCTCCCTCTCCTTTTATGGGCGTAGCTGAAGAAAGGATTCATAAATGAAGTTCAATCCTTCTCATCAACCCCAGCCCACACCTCCAGCAATTGAACTTGAAAAAAAAAACCTGGTTTGAAAAATTACCGCAAACTATATTGTCATCAAAAAAAAAAAAAAAAAAAAACACTTCCTATATTTGAGATGAGAGAAGAGAGTGCTAGGCAGTTTCCTGGCTGAACACGCCAGCCCAATACTTAAAGAGAGCAACTCCTGACTCCGATAGAGACTGGATGGACCCACAAGGGTGACAGCCCAGGCGGACCGATCTTCCCATCCCACATCCTCCGGCGCGATGCCAAAAAGAGGCTGAC (double strand) [563 bp IL2RA fragment]
binds: all assays above
